From US20080096967A1, “Formulations for Injection of Catecholic Butanes, Including Ndga Compounds, Into Animals” (priority 2005, published 2008)
This continues a long series; more values of the same kind are listed elsewhere.

Assay: Solubility and room temperature stability of M4N in modified cyclodextrin / PEG formulations (visual inspection)
Format: physicochemical
Settings: for Dissolution After Heating at X ° C.: 60°
Method: A 100 mL solution of 40% HP-β-CD for use as a solubilizing agent and/or excipient was made as follows: 65 mL of WFI were placed in a glass beaker containing a stir bar. The beaker was placed on a magnetic plate, and the stir bar was set to stir at medium speed. About forty (40) grams of HP-β-CD were added slowly to the stirring WFI, using a spatula to direct the HP-β-CD to the center of the beaker so as to prevent HP-β-CD crystals from sticking to the beaker wall. The HP-β-CD solution was stirred for about 24 hr or until the HP-β-CD was dissolved completely upon visual inspection. The resulting solution measured about 93 mL. About 7 mL of WFI was added to this resulting solution to obtain 100 mL, producing a final solution of about 40% HP-β-CD. The final solution was stirred for about 1 hr, stored at room temperature, and was protected from light. This method of making the modified cyclodextrin solution may be scaled up or down to obtain the desired volume or concentration. Other concentrations or other modified cyclodextrin solutions may be similarly made, for example, by substituting HP-β-CD with other modified cyclodextrins, adjusted for the appropriate concentrations in the process described above.
A 10 mL solution of M4N at a concentration of about 10 mg/mL in 40% HP-β-CD was made as follows. About 10 mL of the 40% HP-β-CD solution were added to a glass beaker containing a stir bar. The beaker was placed on a magnetic plate and the stir bar was set to stir at medium speed. About […] of M4N were slowly added to the 40% HP-β-CD in the center of the beaker with the aid of a spatula. The M4N/40% HP-β-CD mixture was stirred for 2 hr or until all M4N was uniformly suspended without any clumps being present. The M4N/40% HP-β-CD mixture was optionally heated at 80° C. for about 30 min. (or longer if a larger volume of solution was desired, for example, 1 hr at 80° C. for 100 mL of the M4N/HP-β-CD mixture), or longer as needed to ensure complete dissolution of M4N. […] The final M4N/40% HP-β-CD solution was stored at room temperature and was kept protected from light. This process may be scaled up or down to obtain the requisite volume or concentration of M4N. Formulations containing M4N in other cyclodextrin solutions may be similarly made, such as, for example, by substituting HP-β-CD in the process described above with other cyclodextrins.
A 100 mL solution of M4N at a concentration of about 25 mg/mL in PEG 300 was made as follows. About 100 mL of PEG 300 were added to a glass beaker containing a stir bar. The beaker was placed on a magnetic plate and the stir bar was set to stir at medium speed. About 2.5 g of M4N were slowly added to the PEG 300 in the center of the beaker with the aid of a spatula to prevent M4N from sticking to the beaker wall. The M4N/PEG 300 mixture was stirred for 24 hr or until all M4N had dissolved or was uniformly suspended without any clumps being present. The M4N/PEG 300 mixture was optionally heated at about 60° C. for about 30 min. (or longer if a larger volume of solution was desired, for example, 1 hr at 60° C. for 500 mL of the M4N/PEG 300 mixture), or longer as needed to ensure complete dissolution of M4N. […] If crystals formed, the M4N/PEG 300 solution could be heated again at 60° C. for about 1 hr, with stirring, on a hot magnetic plate until all M4N was dissolved back in solution. The final M4N/PEG 300 solution was stored at room temperature and was kept protected from light. This process may be scaled up or down to obtain the requisite volume or concentration of M4N. Formulations containing M4N in other PEGs may be similarly made, such as, for example, by substituting PEG 300 in the process described above with PEG 400 or PEG 400 monolaurate. […]

[1] = 27% HP-β-CD, 33% PEG 300 (v/v), M4N 13.3 mg/mL
[2] = 27% HP-β-CD, 33% PEG 400 (v/v), M4N 13.3 mg/mL
[3] = 27% HP-β-CD, 33% Tween ® 80 (v/v), M4N 13.3 mg/mL
[4] = 30% HP-β-CD, 25% PEG 400 (v/v), M4N 12.5 mg/mL
[5] = 32% HP-β-CD, 20% PEG 400 (v/v), M4N 10 mg/mL
[6] = 40% HP-β-CD, 5% PEG 400 (v/v), M4N 10 mg/mL
[7] = 50% HP-β-CD in saline, M4N 10 mg/mL
[8] = 50% HP-β-CD, 1.25% PVP (w/v), M4N 1 mg/mL

SMILES: COc1ccc(C[C@@H](C)[C@@H](C)Cc2ccc(OC)c(OC)c2)cc1OC [Formulation M4N, meso-1,4-bis(3,4-dimethoxyphenyl)-2,3-dimethylbutane]
- Dissolution After Cool Down [1]: Y
- Dissolution After Rotation [1]: N
- Dissolution After Cool Down [2]: Y
- Dissolution After Rotation [2]: N
- Dissolution After Heating at X ° C. [2]: Y at 60°
- Dissolution After Cool Down [3]: N
- Dissolution After Rotation [3]: N
- Dissolution After Heating at X ° C. [3]: Y at 60°
- Dissolution After Cool Down [4]: Y
- Dissolution After Rotation [4]: N
- Dissolution After Cool Down (30% HP-β-CD, M4N 1 mg/mL): Y
- Dissolution After Rotation (30% HP-β-CD, M4N 1 mg/mL): N
- Dissolution After Cool Down (30% HP-β-CD, M4N 10 mg/mL): Y
- Dissolution After Rotation (30% HP-β-CD, M4N 10 mg/mL): N
- Dissolution After Rotation (30% HP-β-CD, M4N 20 mg/mL): N
- Dissolution After Rotation (30% HP-β-CD, M4N 50 mg/mL): N
- Dissolution After Rotation (30% HP-β-CD, M4N 100 mg/mL): N
- Dissolution After Cool Down [5]: Y
- Dissolution After Rotation [5]: N
- Dissolution After Rotation (40% HP-β-CD, 1% PVP (w/v), M4N 1 mg/mL): N
- Dissolution After Rotation (40% HP-β-CD, 1% PVP (w/v), M4N 10 mg/mL): N
- Dissolution After Rotation (40% HP-β-CD, 2.5% PG (v/v), M4N 1 mg/mL): N
- Dissolution After Rotation (40% HP-β-CD, 2.5% PG (v/v), M4N 10 mg/mL): N
- Dissolution After Cool Down [6]: N
- Dissolution After Rotation [6]: N
- Dissolution After Heating at X ° C. [6]: Y at 60°
- Dissolution After Cool Down (40% HP-β-CD, M4N 1 mg/mL): Y
- Dissolution After Rotation (40% HP-β-CD, M4N 1 mg/mL): N
- Dissolution After Cool Down (40% HP-β-CD, M4N 10 mg/mL): Y
- Dissolution After Rotation (40% HP-β-CD, M4N 10 mg/mL): N
- Dissolution After Rotation (40% HP-β-CD, M4N 12 mg/mL): N
- Dissolution After Rotation (40% HP-β-CD, M4N 14 mg/mL): N
- Dissolution After Rotation (40% HP-β-CD, M4N 16 mg/mL): N
- Dissolution After Rotation (40% HP-β-CD, M4N 20 mg/mL): N
- Dissolution After Rotation (40% HP-β-CD, M4N 50 mg/mL): N
- Dissolution After Rotation (40% HP-β-CD, M4N 100 mg/mL): N
- Dissolution After Cool Down [7]: Y
- Dissolution After Rotation [7]: N
- Dissolution After Cool Down [8]: Y
- Dissolution After Rotation [8]: N
- Dissolution After Rotation (50% HP-β-CD, 1.25% PVP (w/v), M4N 10 mg/mL): N
- Dissolution After Rotation (50% HP-β-CD, 1.25% PVP (w/v), M4N 50 mg/mL): N
- Dissolution After Cool Down (50% HP-β-CD, M4N 1 mg/mL): Y
- Dissolution After Rotation (50% HP-β-CD, M4N 1 mg/mL): N
- Dissolution After Cool Down (50% HP-β-CD, M4N 10 mg/mL): Y
- Dissolution After Rotation (50% HP-β-CD, M4N 10 mg/mL): N
- Dissolution After Rotation (50% HP-β-CD, M4N 20 mg/mL): N
- Dissolution After Rotation (50% HP-β-CD, M4N 50 mg/mL): N
- Dissolution After Rotation (50% HP-β-CD, M4N 100 mg/mL): N
